Reference: PubChem BioAssay AID1487 (National Center for Advancing Translational Sciences (NCATS), 2009)
“And” between values parts separate entries of the source, which are not always exact repeats. Identical values can stand only once. This is one part of the list. These are further read-outs of the screen, such as a control signal, another cell line or another target. No call is given for them. The list favours compounds with an active or inconclusive main result. The note in brackets gives the kind of curve behind each potency; many fits are weak.

Experiment: qHTS Assay for Modulators of Lamin A Splicing
Conditions: HeLa LMNA splicing GFP/RFP minigene ratio, 48 h
How it was run: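 S3 HeLa stable clones carrying a lamin A-EGFP splicing minigene plus DsRed2 were seeded at 600 cells/well in Opti-MEM with 2% FBS, pin-dosed and incubated 48 h at 37°C. Acumen cytometry (488 nm) gave the GFP/RFP total-intensity ratio.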

[1] = measured here: GFP splicing reporter channel
[2] = measured here: RFP viability control channel

| SMILES | AC50 [1] | AC50 [2] |
| --- | --- | --- |
| Cc1cc(-c2nn(-c3ccccc3F)cc2CNCCc2cnc[nH]2)c(C)s1 | 0.891 µM [falling, partial curve] |  |
| O=S(=O)(c1ccc2c(c1)OCCO2)N1CCC(c2nc3ccccc3s2)CC1 |  | 3.16 µM [rising, full curve] |
| COCCCNS(=O)(=O)c1ccc(Oc2ncc(C(F)(F)F)cc2Cl)cc1 | 35.5 µM [rising, single point] | 35.5 µM [rising, single point] |
| Cc1ccc(/C=N/N2CCN(C3c4ccccc4-c4ccccc43)CC2)s1 |  | 0.0224 µM [rising, full curve, poor fit] |
| CCOc1ccc2nc(SCC(=O)c3ccc(Cl)s3)sc2c1 | 12.6 µM [rising, single point] | 15.8 µM [rising, single point] |
| Cc1cc(C)n(-c2ccc(C(=O)OCC(=O)N(CC(C)C)C3CCS(=O)(=O)C3)cc2)n1 (stereo unspecified) |  | 5.62 µM [rising, single point] |
| O=C(Nc1cc(C(F)(F)F)ccc1N1CCOCC1)c1ccc(Br)o1 | 8.91 µM [rising, partial curve, poor fit] |  |
| Nc1nc(CSC(=S)N2CCOCC2)nc(Nc2ccccc2)n1 | 17.8 µM [rising, partial curve] | 35.5 µM [rising, single point] |
| O=C(O)CN(CCN(CC(=O)O)CC(=O)O)CCN(CC(=O)O)CC(=O)O | 14.1 µM [rising, single point] and 11.2 µM [falling, partial curve] | 22.4 µM [rising, partial curve, poor fit] and 126 nM [rising, full curve, poor fit] |
| CC1=CCC(C(=O)N/N=C/c2cccs2)C(c2ccc(F)cc2)C1 (stereo unspecified) | 35.5 µM [falling, single point] | 12.6 µM [falling, partial curve] |
| C=CCn1c(=O)c2c3c(sc2n2c(Nc4ccc(OC)cc4)nnc12)CCCC3 | 35.5 µM [rising, single point] |  |
| CC(C)(CO)Cc1cc(C(C)(C)C)c(O)c(C(C)(C)C)c1 | 28.2 µM [falling, single point] | 35.5 µM [falling, partial curve, poor fit] |
| Cc1ccc(Oc2cc([N+](=O)[O-])cc3c2C(=O)Nc2ccccc2O3)cc1 | 2.24 µM [rising, partial curve, poor fit] | 3.16 µM [rising, partial curve] |
| CC(=O)Oc1ccccc1C1=NN(C(=O)/C=C/c2ccccc2)C(c2ccccc2)C1 (stereo unspecified) |  | 10 µM [rising, partial curve] |
